PubChem BioAssay AID504764, Drosophila RNAi Screening Center | 2011

Screen: 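Genes whose knock-down alters Notch-dependent transcription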 (primary screen)
Cell system: Drosophila Kc167 cells
Knock-down reagent: long dsRNA against Drosophila genes
Timing: about 5 days (4 days dsRNA, then 24 h after transfection)
Conditions: transfection of constitutively active membrane-tethered Notch lacking the extracellular domain, read 24 h later
Read-out: 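Light from a Notch-responsive E(spl)m3 luciferase reporter under active Notch, with control-promoter and no-Notch reporter wells to normalise; raw counts from paired wells a and b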
Direction: induced reporter light, run 1, well a and induced reporter light, run 1, well b: higher = more light from the Notch target reporter with active Notch; control promoter light, run 1, well a and control promoter light, run 1, well b: higher = more light from the viral control promoter (cell number, transfection, viability); uninduced reporter light, run 1, well a: higher = more light from the Notch target reporter without active Notch
Call rule: 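Wells with low control signal or poorly matching duplicates excluded; duplicates averaged; per source plate, z beyond ±2 for induced/control log2 ratio or beyond ±1.8 for induced/uninduced marks a hit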
Calls: active = modifier hit (raised or lowered Notch signal); inactive = not a hit
In all, the deposit lists about 22,000 reagents; this is a random part of those with a known target gene and a result. Of all reagents, 403 (1.9%) are marked active. 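Unnormalised raw counts per well; ratio z-scores behind the hit calls and whether each hit raises or lowers signal are not deposited.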 Unmarked entries are inactive. Reagent sequences are not shown. The record does not give: the amount of reagent.

For CG3652 (GeneID 33643) [DRSC00624] the deposit lists induced reporter light, run 1, well a = 1.47e5; induced reporter light, run 1, well b = 1.39e5; control promoter light, run 1, well a = 1.38e5; control promoter light, run 1, well b = 1.58e5; uninduced reporter light, run 1, well a = 8670.
plum (GeneID 43197) [DRSC16054] showed induced reporter light, run 1, well a = 2.25e5; induced reporter light, run 1, well b = 2.08e5; control promoter light, run 1, well a = 2.52e5; control promoter light, run 1, well b = 3.08e5; uninduced reporter light, run 1, well a = 14235.
mat (GeneID 38107) [DRSC08376] scored induced reporter light, run 1, well a = 2.06e5; induced reporter light, run 1, well b = 1.58e5; control promoter light, run 1, well a = 2.77e5; control promoter light, run 1, well b = 2.68e5; uninduced reporter light, run 1, well a = 8620.
ppk24 (GeneID 43702) [DRSC15093] gave induced reporter light, run 1, well a = 1.42e5; induced reporter light, run 1, well b = 1.24e5; control promoter light, run 1, well a = 2.26e5; control promoter light, run 1, well b = 2.18e5; uninduced reporter light, run 1, well a = 11370.
For CG12713 (GeneID 39724) [DRSC09900], the entry reads induced reporter light, run 1, well a = 1.07e5; induced reporter light, run 1, well b = 1.13e5; control promoter light, run 1, well a = 87610; control promoter light, run 1, well b = 76460; uninduced reporter light, run 1, well a = 9175.
Knock-down of CG18004 (GeneID 36154) [DRSC06705] resulted in: induced reporter light, run 1, well a = 1.94e5; induced reporter light, run 1, well b = 1.83e5; control promoter light, run 1, well a = 2.26e5; control promoter light, run 1, well b = 2.12e5; uninduced reporter light, run 1, well a = 15525.
mRpL24 (GeneID 33703) [DRSC03113] gave induced reporter light, run 1, well a = 1.99e5 (active); induced reporter light, run 1, well b = 1.90e5; control promoter light, run 1, well a = 2.44e5; control promoter light, run 1, well b = 2.78e5; uninduced reporter light, run 1, well a = 14760.
Pino (GeneID 33288) [DRSC00038] gave induced reporter light, run 1, well a = 3225; induced reporter light, run 1, well b = 3990; control promoter light, run 1, well a = 2988; control promoter light, run 1, well b = 2890; uninduced reporter light, run 1, well a = 2450.
Pino (GeneID 33288) [DRSC00662] showed induced reporter light, run 1, well a = 1.74e5; induced reporter light, run 1, well b = 2.07e5; control promoter light, run 1, well a = 1.90e5; control promoter light, run 1, well b = 1.86e5; uninduced reporter light, run 1, well a = 13305.
For Ns3 (GeneID 31097) [DRSC18607] the deposit lists induced reporter light, run 1, well a = 1.65e5; induced reporter light, run 1, well b = 2.10e5; control promoter light, run 1, well a = 2.50e5; control promoter light, run 1, well b = 2.75e5; uninduced reporter light, run 1, well a = 11860.
With knock-down of Rrp47 (GeneID 32558) [DRSC20124], the screen gave induced reporter light, run 1, well a = 96210; induced reporter light, run 1, well b = 84390; control promoter light, run 1, well a = 1.00e5; control promoter light, run 1, well b = 84210; uninduced reporter light, run 1, well a = 14560.
Against CG11816 (GeneID 32310) [DRSC19428], the entry reads induced reporter light, run 1, well a = 93905; induced reporter light, run 1, well b = 85320; control promoter light, run 1, well a = 1.01e5; control promoter light, run 1, well b = 95280; uninduced reporter light, run 1, well a = 7590.
Orc1 (GeneID 35686) [DRSC07496] scored induced reporter light, run 1, well a = 1.80e5; induced reporter light, run 1, well b = 1.76e5; control promoter light, run 1, well a = 2.30e5; control promoter light, run 1, well b = 1.98e5; uninduced reporter light, run 1, well a = 10830.
CG8630 (GeneID 41629) [DRSC16441] showed induced reporter light, run 1, well a = 1.90e5; induced reporter light, run 1, well b = 2.27e5; control promoter light, run 1, well a = 2.26e5; control promoter light, run 1, well b = 2.15e5; uninduced reporter light, run 1, well a = 16085.
CCDC53 (GeneID 34097) [DRSC03056] showed induced reporter light, run 1, well a = 1.40e5; induced reporter light, run 1, well b = 1.60e5; control promoter light, run 1, well a = 89995; control promoter light, run 1, well b = 1.20e5; uninduced reporter light, run 1, well a = 19205.
For Mlp60A (GeneID 37853) [DRSC04623] the deposit lists induced reporter light, run 1, well a = 1.35e5; induced reporter light, run 1, well b = 1.08e5; control promoter light, run 1, well a = 1.61e5; control promoter light, run 1, well b = 1.39e5; uninduced reporter light, run 1, well a = 9265.
With knock-down of JhI-21 (GeneID 34624) [DRSC02161], the screen gave induced reporter light, run 1, well a = 1.77e5; induced reporter light, run 1, well b = 2.29e5; control promoter light, run 1, well a = 1.77e5; control promoter light, run 1, well b = 1.55e5; uninduced reporter light, run 1, well a = 14645.
After knock-down of Poxm (GeneID 40990) [DRSC16793], the record shows induced reporter light, run 1, well a = 94550; induced reporter light, run 1, well b = 87845; control promoter light, run 1, well a = 69475; control promoter light, run 1, well b = 81110; uninduced reporter light, run 1, well a = 6515.
ldbr (GeneID 38900) [DRSC10933] showed induced reporter light, run 1, well a = 98775; induced reporter light, run 1, well b = 83310; control promoter light, run 1, well a = 53135; control promoter light, run 1, well b = 29065; uninduced reporter light, run 1, well a = 8475.
Osi1 (GeneID 40752) [DRSC12271] scored induced reporter light, run 1, well a = 80580; induced reporter light, run 1, well b = 1.03e5; control promoter light, run 1, well a = 84240; control promoter light, run 1, well b = 83775; uninduced reporter light, run 1, well a = 6110.
LManIV (GeneID 34204) [DRSC03222] gave induced reporter light, run 1, well a = 1.10e5; induced reporter light, run 1, well b = 1.19e5; control promoter light, run 1, well a = 95715; control promoter light, run 1, well b = 1.02e5; uninduced reporter light, run 1, well a = 20670.
After knock-down of eIF4E5 (GeneID 38878) [DRSC10975], the screen gave induced reporter light, run 1, well a = 1.79e5; induced reporter light, run 1, well b = 1.98e5; control promoter light, run 1, well a = 2.76e5; control promoter light, run 1, well b = 1.65e5; uninduced reporter light, run 1, well a = 6870.
Against RluA-1 (GeneID 34438) [DRSC02240] the deposit lists induced reporter light, run 1, well a = 99060; induced reporter light, run 1, well b = 1.42e5; control promoter light, run 1, well a = 68420; control promoter light, run 1, well b = 97540; uninduced reporter light, run 1, well a = 15405.
Against RluA-1 (GeneID 34438) [DRSC03060], the entry reads induced reporter light, run 1, well a = 1.14e5; induced reporter light, run 1, well b = 1.31e5; control promoter light, run 1, well a = 67630; control promoter light, run 1, well b = 87200; uninduced reporter light, run 1, well a = 16125.

Records listed so far whose gene name begins with M or m (3):
mat (GeneID 38107) [DRSC08376]: induced reporter light, run 1, well a = 2.06e5; induced reporter light, run 1, well b = 1.58e5; control promoter light, run 1, well a = 2.77e5; control promoter light, run 1, well b = 2.68e5; uninduced reporter light, run 1, well a = 8620
mRpL24 (GeneID 33703) [DRSC03113]: induced reporter light, run 1, well a = 1.99e5 (active); induced reporter light, run 1, well b = 1.90e5; control promoter light, run 1, well a = 2.44e5; control promoter light, run 1, well b = 2.78e5; uninduced reporter light, run 1, well a = 14760
Mlp60A (GeneID 37853) [DRSC04623]: induced reporter light, run 1, well a = 1.35e5; induced reporter light, run 1, well b = 1.08e5; control promoter light, run 1, well a = 1.61e5; control promoter light, run 1, well b = 1.39e5; uninduced reporter light, run 1, well a = 9265
